Assay results reported in PubChem BioAssay AID1508600 (Functional Genomics Laboratory (NCATS/FGL), 2020).
In all, about 53,000 sequences went through this assay and about 3,700 (7%) were called active.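 Rule for the calls: active = gene knockdowns whose robust z-score for IL-1 alpha signal is at least 2 or at most -2, so actives lie on both sides; inactive = the rest.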 Some of the results follow.

experiment: Components of the Cytosolic LPS Sensing Pathway: Gene Identification via Genome-wide siRNA Screen; conditions: RAW264.7 macrophages, IL-1a HTRF, actives lie on both sides, screened at 100 nM (by protocol), cells primed 5 h with Pam3CSK4 first;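 note: robust z of the log signal after scaling to non-targeting control siRNA wells of the plate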
How it was run: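 Knockdown: 100 nM siRNA, 48h, RAW264.7. Stimulation: Pam3CSK4 5 h, then LipidA via TransIT-TKO 24 h. Output: supernatant IL-1a HTRF, negative-control-normalized, log robust z-score; viability by CellTiter-Glo.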

z-score, active:
GGAGAUCUGUGAUGAGGUGTT against Nudt22 2.07, GGAAAUGUUUACCUGCCAUTT against Zfp512 2.32, GGUUCAGAUGGGAAAAAGGTT against Khdrbs2 -2.41, GGACAUGUGUAAAUAAUCATT against En2 3.4, GGCUCAAUAAAAUGAAGUGTT against Elovl2 2.03, GGUGAUUUCGGGUAACGAGTT against Ddr1 -2.17, GGUGCAGGCCAUGAUUUACTT against C1qtnf4 2.65, GAAGCAGAACUUGAGCAAGTT against Phgdh 2.07

z-score, inactive:
GGUACGGACCCACAUUCAATT against Wscd2 1.47, GCCCUUUGGAUAACAGUGATT against Sufu -0.13, GGAGAUUAUCACAACUAUUTT against Sash3 0.845, GGUUGGAGUUGAUUUUAAUTT against Zmym1 -0.189, CCUAGAUUCUGAAUUCGAATT against Pdzd8 -1.09, GCAGUCACUAAAUUGGAAATT against Eif3j1 1.36, GGUUACCUGAGGUCAGUAGTT against Irgm1 -1.54, GGUCCUGAACCAGUUAGAGTT against Myo19 0.159, GUUUGAGGACUUGGAGGUGTT against Znrf4 1.34, GGACAAUGUGCAUUCUCACTT against Tada1 -0.682, GGUGCUGAUGGGAGAUAGUTT against 1700010H22Rik -0.851, GAAGAUCCACUUCAUCGCCTT against Psmb10 1.24, GGAAUAAGGACAUAAAGAATT against Olfr248 -1.25, GGAAUACGAAGAGAUUAUATT against Zw10 0.65, CCACUUAAAAUUCAUUCCUTT against Arl6ip1 -0.21, GGAACUUAUCCUUCUUAGATT against Olfr713 0.259, GGUCCCAGAAAGUAGGCAUTT against Prss22 0.179, CCUGCGCUUCUGACUAUCUTT against Dcbld1 0.18, CCCUUGCUAGUCCUUCUAUTT against Bora -0.65, GGUAAAUGAGAUCAACUUCTT against Dvl3 -0.225, CCAUAUGUGCUCACCUUUATT against Marveld2 -0.641, AUCGUGUUUGCUGUAUUUGTT against Olfr1258 0.33, GGUAGUCUCUGCCACCAAUTT against Mrps11 0.356, GCACAGUGGUAAUUCUUUATT against Snapc3 0.026, CGGAGUCACGCACAACUUCTT against Arsg -0.132, GGUCGUGUUCGAGCAAACCTT against Tpi1 -0.725, CGUGUAGAUUACAAGAAUGTT against Mrps18c 1.97, GGCUUUAAGGCUAGCAGUUTT against Pex11a -0.777, GGAAUUUCAAAGAGACAAATT against Cyfip1 -0.423, CGCAUUUCGAAUAAAGACATT against Mettl22 -0.546, GCGUGAUCAUUGAUGUGGATT against Slc5a7 0.364, GGGUCCAGUUUAAGACAUATT against Lypla2 0.0279, GCAACUCAAUGACCUGAAATT against Ifnab -1.83, GCGAAUAAACCACUUGUUGTT against Pum2 0.184, CGCCAGAAAGCUUCUAUGATT against Gucy2c -0.972, GGCUGAGAAGACUUUCAGUTT against Trappc4 0.36, GCAUCAAAUUUUGAUAAGCTT against Wapl -0.277, GCUAUCGGACUGUGUGCUGTT against Rpl41 -0.243, GGAGAUGAAGCUCUGGAUATT against Spock2 0.132, GGACGAAAAGAAGUGUUUCTT against Lamb2 -0.103, GGUAAAAAGUACAAGUGGGTT against Slc17a5 -0.909, GCCCGGUCCUUUACUACAUTT against Sdk1 0.595, GGUUUUGAGUGAGAAAUGGTT against Plekhb2 -0.414, GCAGAUGUAAAUAGCAAAATT against Apc 0.955, GAAAACCAGCAUAAAGUCUTT against Lcorl 1.13, GGCAUUGGAAUAAAAUUUGTT against Rfk 0.267, GGAACCUAUUGCUGUUUUATT against Map2k3 -0.756, GGAGGAGAGGUACAAGAUGTT against Pcyt2 -0.804, GGAUCUACGUAGCAUUUCATT against Mis12 0.237, GGGAUUUGUUACCCUCCUCTT against B9d1 0.267, GGCCAGUUUGACAUUCCUGTT against Mdh1b 0.000172, GGACUUCAAAGAUAACAACTT against Timm44 1.52, CCCAUCUCCUCGAAUAAAUTT against Mtch1 0.748, GGAAAUGUGACCACAAAGATT against Tas2r120 -0.772, GGGUUGCCUACUGCAUUAUTT against Cbx2 0.0297, GGAAAUCAUUAGCACCUAGTT against Sox13 1.16, GCUGCUACGUUCUUGUAAATT against Pmp2 0.136, GGAUUUGCAAAGCCCAGUCTT against Zfp934 -0.214, GGAACCAUGAAAUAAAUGUTT against Acad8 0.684, GCAGCUAGAUAAUUAACUATT against Atp10b 0.48, CCGCUUUGUCAGCAUGUGGTT against Tmem259 -0.313, GGAUAGAAACAUCUUGUCUTT against Smcp 0.412, GGUGGUAAAGAUUACAUCUTT against Sarnp 0.512, CGCUCCAUCCAAGAGUUCUTT against Gp1bb 1.95, GCUGGAAUGCAAGGGCUUCTT against Gchfr 1.45, CCUCACAAAGCACAAUAUCTT against Sntg1 -1.46, GGAAUACACCAUUUAACAATT against Acbd5 1.32, GGAAGUGUCAGGAUAUAUUTT against Cfap299 0.408, GCGGAACCUGAACAUUCGUTT against Zhx2 0.523, GGGCCAACAAACUGUUUAATT against Lysmd2 -0.263, GCCGUCAUUUUGCCUCGAUTT against Zswim3 -0.542, GCAGAGAUAUCAAAUGGGATT against Atp6v1a -1.07, GGGUUCAACACAGCCAAUGTT against Fam151a 0.987, GGAGGAAGAAACAACAAUGTT against Calhm5 0.76, CCAGUUUUUCGAGUAUACGTT against Galnt12 -0.321, GGAGACUGCUUUCCUCUACTT against Wnt9a -0.283, GGCAGUGGCCGAAAAGACUTT against Fzd7 -0.0835, GCACAUGGUGAUUUAUAUATT against Ostn -0.448, GGGCAAAUCCUUUAGUUUGTT against Siae -0.62, CCGACCCAAUUAAUGAUCATT against Tlcd2 -1.12, CGCAAAGGAAGAAAUGCUGTT against Klra17 0.0433, GCACUCAAAUGGUAGAUUCTT against Socs6 -0.315, GGAAGAGAGAUGGAAAAAATT against Gcnt1 -0.267, GGAAAGGAGAAGAGAAAUGTT against Scyl1 1.18, GCCUCACAACUCUUACACCTT against Ptprc 0.954, GGCUUUUUGUCUAACAAGUTT against Trappc13 0.23, GGAGCAGAUACCCUAGCCUTT against Mtx1 0.698, GGUCAAUAUUCUUAUGUCCTT against S1pr3 0.245, GGAAGAUGAUAACAACAACTT against Kif3c 1.02, GGCUUUUUAUUCAAAUCCCTT against Ky 0.323, GGCUUAGAGUCAUCUUUAATT against Mia2 -0.0357, CCCAGGACUCGGAUUAGAATT against Slc25a41 0.706, CCCAUUGGUAUACUUGGAUTT against 2210407C18Rik -0.293, CCCUACGCUUCAUCAAGCUTT against Glp1r 0.926, GGUCUACCUGGAGUAAUGCTT against Sp1 -0.636, GGCAGAGGAAAUUCUGGAGTT against Rpl11 0.482, GGCAAAACCACAAUGAACUTT against Ncaph2 0.294, GGUGUUUUUGUCCAGGUCATT against Kcnk3 -0.618, GGCAUAUAUACAUACCUCCTT against Olfr1389 -0.334
